The target of experiment [1] is T1, SpDre4-TAP (S. pombe) (UniProt Q09685).
T1 sequence: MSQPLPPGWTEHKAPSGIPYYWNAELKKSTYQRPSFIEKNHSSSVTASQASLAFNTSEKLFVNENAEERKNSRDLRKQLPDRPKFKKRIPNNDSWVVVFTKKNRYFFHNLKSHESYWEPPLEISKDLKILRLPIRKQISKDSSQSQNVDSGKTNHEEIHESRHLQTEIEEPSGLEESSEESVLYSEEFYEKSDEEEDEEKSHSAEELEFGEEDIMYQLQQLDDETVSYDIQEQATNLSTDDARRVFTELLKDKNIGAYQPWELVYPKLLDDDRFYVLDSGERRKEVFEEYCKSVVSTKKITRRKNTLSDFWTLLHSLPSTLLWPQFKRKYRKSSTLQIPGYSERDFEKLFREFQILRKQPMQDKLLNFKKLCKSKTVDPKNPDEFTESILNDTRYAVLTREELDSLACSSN
Nature of the experiment: affinity purification with mass spectrometry; TAP from S. pombe strains, 2D-LC-MS/MS, SEQUEST search.

By UniProt entry, the sequences of proteins in these tests, tags left out. Where a name states a change or a piece, a line headed by the entry shows the natural chain unless it says otherwise.
UniProt Q9P7H6: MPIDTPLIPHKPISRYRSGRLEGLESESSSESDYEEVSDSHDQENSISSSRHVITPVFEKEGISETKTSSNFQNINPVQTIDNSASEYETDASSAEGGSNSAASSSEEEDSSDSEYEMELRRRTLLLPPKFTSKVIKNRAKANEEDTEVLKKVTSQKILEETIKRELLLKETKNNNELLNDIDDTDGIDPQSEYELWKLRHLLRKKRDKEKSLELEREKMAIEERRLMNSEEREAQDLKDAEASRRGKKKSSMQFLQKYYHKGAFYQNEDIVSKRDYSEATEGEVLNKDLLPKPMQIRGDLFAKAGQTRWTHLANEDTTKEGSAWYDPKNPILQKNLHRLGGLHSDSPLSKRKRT
UniProt O14097: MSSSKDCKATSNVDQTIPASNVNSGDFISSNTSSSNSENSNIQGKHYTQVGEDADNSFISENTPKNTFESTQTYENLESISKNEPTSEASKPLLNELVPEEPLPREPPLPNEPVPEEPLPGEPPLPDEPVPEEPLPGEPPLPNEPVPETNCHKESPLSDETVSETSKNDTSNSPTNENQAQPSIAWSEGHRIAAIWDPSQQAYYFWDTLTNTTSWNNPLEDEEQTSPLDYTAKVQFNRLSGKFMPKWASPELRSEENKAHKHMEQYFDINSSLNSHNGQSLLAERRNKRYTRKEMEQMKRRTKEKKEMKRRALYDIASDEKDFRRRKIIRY
UniProt Q12046: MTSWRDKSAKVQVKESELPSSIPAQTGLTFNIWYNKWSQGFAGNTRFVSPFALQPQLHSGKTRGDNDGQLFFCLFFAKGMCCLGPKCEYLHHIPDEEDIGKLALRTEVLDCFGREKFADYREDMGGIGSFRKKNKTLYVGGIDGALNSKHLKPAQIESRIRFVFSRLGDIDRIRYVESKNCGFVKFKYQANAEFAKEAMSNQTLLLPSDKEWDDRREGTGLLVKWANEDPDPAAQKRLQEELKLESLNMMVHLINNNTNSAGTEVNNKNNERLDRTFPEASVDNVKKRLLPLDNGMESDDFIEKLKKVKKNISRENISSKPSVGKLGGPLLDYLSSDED

The target in experiment [2] is T2, ScUrn1-TAP (S. cerevisiae) (UniProt Q06525).
T2 sequence: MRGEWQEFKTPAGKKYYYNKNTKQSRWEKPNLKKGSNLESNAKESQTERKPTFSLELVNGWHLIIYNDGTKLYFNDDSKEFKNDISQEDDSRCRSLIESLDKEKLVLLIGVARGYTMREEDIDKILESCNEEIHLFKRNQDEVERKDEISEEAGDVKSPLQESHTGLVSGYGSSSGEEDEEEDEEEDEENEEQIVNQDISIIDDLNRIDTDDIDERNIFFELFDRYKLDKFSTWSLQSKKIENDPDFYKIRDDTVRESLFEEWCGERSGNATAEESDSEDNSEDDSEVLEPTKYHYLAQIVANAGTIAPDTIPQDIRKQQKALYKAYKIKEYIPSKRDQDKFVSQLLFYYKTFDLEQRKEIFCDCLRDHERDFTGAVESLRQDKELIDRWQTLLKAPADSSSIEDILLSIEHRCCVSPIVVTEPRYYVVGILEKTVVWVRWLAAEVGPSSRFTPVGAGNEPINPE
Briefly: affinity purification with mass spectrometry; TAP from S. cerevisiae strains, 2D-LC mass spectrometry, Myrimatch search.

Experiment [3] addresses T1, SpDre4-TAP (S. pombe). Briefly: affinity purification with mass spectrometry; TAP from S. pombe strains, 2D-LC-MS/MS, SEQUEST search. This is another data set of the same source.
Experiment [4] concerns the target SpSaf3, epitope-tagged at the endogenous locus (S. pombe) (UniProt Q9P7H6). The experiment is described as above.
The target of another experiment is T3, Aim4-TAP (S. cerevisiae) (UniProt P38305).
T3 sequence: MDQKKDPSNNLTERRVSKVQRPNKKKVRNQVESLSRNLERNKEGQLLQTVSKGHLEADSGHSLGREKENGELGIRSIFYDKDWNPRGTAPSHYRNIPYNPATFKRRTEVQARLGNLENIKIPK
Nature of the experiment: affinity purification with mass spectrometry; TAP from S. cerevisiae strains, 2D-LC mass spectrometry, Myrimatch search.

For experiment [5], the target named is T2, ScUrn1-TAP (S. cerevisiae). The experiment is described as above. The source holds these as a separate data set.
Another experiment has as its target T4, SpPrp17-TAP (S. pombe) (UniProt O43071).
T4 sequence: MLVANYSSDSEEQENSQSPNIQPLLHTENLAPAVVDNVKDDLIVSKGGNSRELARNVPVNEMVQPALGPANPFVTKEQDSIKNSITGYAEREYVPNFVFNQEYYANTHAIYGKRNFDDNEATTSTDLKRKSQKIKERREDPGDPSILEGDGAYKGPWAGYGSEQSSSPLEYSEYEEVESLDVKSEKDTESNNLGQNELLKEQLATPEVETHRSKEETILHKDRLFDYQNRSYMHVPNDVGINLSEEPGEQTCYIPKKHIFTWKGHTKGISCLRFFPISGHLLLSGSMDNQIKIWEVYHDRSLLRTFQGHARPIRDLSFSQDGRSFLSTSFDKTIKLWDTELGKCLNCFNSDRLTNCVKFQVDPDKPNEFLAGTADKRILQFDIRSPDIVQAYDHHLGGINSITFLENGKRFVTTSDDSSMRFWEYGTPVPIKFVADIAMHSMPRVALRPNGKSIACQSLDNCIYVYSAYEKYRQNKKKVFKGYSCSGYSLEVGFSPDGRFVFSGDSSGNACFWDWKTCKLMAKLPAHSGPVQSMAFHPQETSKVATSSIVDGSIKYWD
Nature of the experiment: affinity purification with mass spectrometry; TAP from S. pombe strains, 2D-LC-MS/MS, SEQUEST search.

Like-named read-outs stand apart in the source and are kept apart here. Results are given in words; binding and its absence hold for the method and conditions named. In cells and extracts the contact can be indirect. Here binding means that the protein was enriched with, or labelled near, the bait; the list need not be complete. For some assays here: No binding means not detected with the bait.

Take “S. pombe Saf3 (endogenous) (from UniProt Q9P7H6)”: in the experiment with SpDre4-TAP (S. pombe) [1], the binding entry is listed as “binds”. For the molecule “S. pombe Saf2 (endogenous) (from UniProt O14097)”, the binding result with SpDre4-TAP (S. pombe) [1] is on record as “binds”. “S. cerevisiae Cwc2 (endogenous) (from UniProt Q12046 1-339)”: the binding entry in experiment [2] is on record as “no binding”.

B1: S. pombe Prp19 (endogenous) (protein, UniProt O14011 1-488)
chain: MFCSISGETPKEPVISRVSGNVYEKRLIEQVIRETSKDPVTQQECTLEDLVPVKVPDFVRPRPPSATSLPALLSLFQEEWDSVALEQFELRRNLTETKQELSTALYSLDAALRVISRLTKERDEAREALAKFSDNIGTVSSKTIEVQEVEMGESDDQLKTSLRSTVEKTFQELSSKRKRTKLQPKWATDDAVSQLLQATPSTILENLETESTTSFFPSPENSSFVLCLHKDELLCLDIQSNSTLKIFEGSALACCWLTSSKIAVATADAISIFEFPVSSSGLQSVGEPTSSIPIDEKVNFLQAHPSGEYLLAASNEKCYIFSLKSQVYNITVAQHITSLAVHPDGNLFVAGLENGELRFFETSSGNELTKFGPHSSPVKTLQFGENGYWLVVTTNDDSDIFIWDLRKSELVQKIPLQTKVAAVSLDITSQLLVSSDGETLYVHIYVKSSKSWRCMSQTHVSSISNLVWLNELHQLLFSTSNGAILRLG
As to B1, the binding entry in the experiment with SpDre4-TAP (S. pombe) [3] is recorded as “binds”.

B2: S. pombe Prp38 (endogenous) (protein, UniProt Q9UUD2 1-210)
chain: MADFLARDYRSQGEAAHEMLPTFLIGKILRERIVDSIYWKEQCFGLNACSLVDRAVRLEYIGGQYGNQRPTEFICLLYKLLQIAPEKEIIQQYLSIPEFKYLRALAAFYVRLTWDDVEVHQTLEPLLRDYRKLRIRTNSEIRLTYLDEVVDDLLNAEVVCDISLPPLRSRLQLEDLDLLEPLSSSSDEEDDDEEQISKLESNEGAVDRNI
As for B2, the binding entry in experiment [4] is “binds”.

B3: His6-ScUrn1 (natural protein, S. cerevisiae, UniProt Q06525 1-465, looked up)
chain: T2 sequence
notes: Urn1, S. cerevisiae (His6-ScUrn1 mass 55.1 kDa); the printed mass fits the whole protein; also called His6-Urn1; source: E. coli BL21 (pETDuet-1), co-expressed with ScPrp19, purified (Ni-NTA agarose, heparin agarose, gel filtration)
B3: in the experiment with Aim4-TAP (S. cerevisiae), the binding entry is “binds”.

B4: S. cerevisiae Prp17 (endogenous) (protein, UniProt P40968 1-455)
chain: MGLVDGYDTSSDSDLNFDEGKSVHEKKNGNLHEDTSYEPSSNNIHKRKSHFTKSELKRRRKTRKGDGPWGSWSSSDDETSQASETQKEDQDIFVHALAEDNLDSEQIEVEEVSHFYGKSEKDYQGRGYLYPPNDVDVDLREERISFRCYLPKKVIRNYPGHPEGTTALKFLPKTGHLILSGGNDHTIKIWDFYHDYECLRDFQGHNKPIKALRFTEDCQSFLSSSFDRSVKIWDTETGKVKTRLHLNSTPADVESRPTNPHEFIVGLSNSKILHYDDRVSENQGLVQTYDHHLSSILALKYFPDGSKFISSSEDKTVRIWENQINVPIKQISDTAQHSMPFLNVHPSQNYFCAQSMDNRIYSFSLKPKYKRHPKKIFKGHSSAGYGISLAFSGDGRYICSGDSKSRLFTWDWNTSRLLNNIKIPGNKPITQVDWHPQETSKVICSGAAGKIYVCD
B4: the binding result in experiment [5] was “no binding”.

B5: S. pombe Snu23 (endogenous) (protein, UniProt Q09776 1-174)
chain: MDRYNPPRRNGNSKKNEVVITGGRTQRIDFEKDVNKTTILPPAGASVGRRGRGAGWYCEACNETYKDSLSWLDHLNSTQHLRKTRTVIIEKRATLEEVKERMEYWRRQLLEPEKGSEEYSLKERVERYHQELEAKKLRRKQKKVNKEKNSPRLVGENTELAAIMGISSFGSTNL
For B5, the binding result in experiment [4] is recorded as “binds”.

B6: S. cerevisiae Aim4 (endogenous) (protein, UniProt P38305 1-123)
chain: T3 sequence
As for B6, the binding result in experiment [5] is recorded as “binds”.

B7: S. pombe Saf1 (endogenous) (protein, UniProt O74517 1-278)
chain: MLSKRGLNPVQAESRKKKKREQIKVREERAKRHEERLSHRNMSQMERQLSELTQLESSQALNAHDKQLLQNLQRDMAIMKKKNIHGHRVGRVESDKTKEAERQHKPRKPFIPKNPKRSIYYDPIFNPYGVPPPGMPYREKEELSSETDESVIDIPLPSEEYPFEDPKPREKKNKSFKPKHHKKQDINASSAQPKSTTTTEAAANTKDIEEETMIEYSAQPVVRDLRQEAAQFLPAAFQRQKLAKGQKIGQPDRDVSSQVQEDKDEEIDNFYKEIGGYL
As to B7, the results for the binding result in the experiment with SpPrp17-TAP (S. pombe) and with SpDre4-TAP (S. pombe) [3] were “no binding” and “binds”, respectively.

For the origin of these results see publication PMC3046128, “Systematic Two-Hybrid and Comparative Proteomic Analyses Reveal Novel Yeast Pre-mRNA Splicing Factors Connected to Prp19” (PLoS ONE, 2011).
